No constants are given. Whether binding was seen depends on the method and setting. Binding seen in cells or lysates may run through a third protein. Some binding calls cover weakened binding; strength is not graded here.
Biological target: LCK (mouse (endogenous in splenic CD4+ T cells)) (UniProt P06240)
Assay: co-IP; LCK antibody (4 ug, 12 h, 4°C) and protein A/G plus agarose beads; lysates of CD4+ T cells from Spry2+/+ and Spry2-/- mice, unstimulated or anti-CD3/CD28-stimulated (10 min); 25 mM Tris-HCl pH 7.4, 150 mM NaCl, 1.0% TritonX-100, 5 mM EDTA, 0.1% BSA; immunoblot of LCK, CSK and p-CSK

Amino acid sequences for entries named in this document (tags omitted).
UniProt P06240: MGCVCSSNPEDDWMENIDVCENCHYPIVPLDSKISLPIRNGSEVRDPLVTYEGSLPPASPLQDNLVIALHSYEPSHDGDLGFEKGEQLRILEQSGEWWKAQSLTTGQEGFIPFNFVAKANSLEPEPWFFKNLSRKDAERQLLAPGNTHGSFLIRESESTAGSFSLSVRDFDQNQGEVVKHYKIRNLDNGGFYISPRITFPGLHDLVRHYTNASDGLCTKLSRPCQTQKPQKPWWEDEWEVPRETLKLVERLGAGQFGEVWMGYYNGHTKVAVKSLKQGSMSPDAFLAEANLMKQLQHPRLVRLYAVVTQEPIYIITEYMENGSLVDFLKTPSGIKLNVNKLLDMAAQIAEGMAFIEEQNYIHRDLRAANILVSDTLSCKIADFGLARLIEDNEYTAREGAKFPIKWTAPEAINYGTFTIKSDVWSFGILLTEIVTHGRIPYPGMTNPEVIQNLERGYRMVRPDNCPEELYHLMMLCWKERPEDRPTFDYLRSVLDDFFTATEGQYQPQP
UniProt P41241: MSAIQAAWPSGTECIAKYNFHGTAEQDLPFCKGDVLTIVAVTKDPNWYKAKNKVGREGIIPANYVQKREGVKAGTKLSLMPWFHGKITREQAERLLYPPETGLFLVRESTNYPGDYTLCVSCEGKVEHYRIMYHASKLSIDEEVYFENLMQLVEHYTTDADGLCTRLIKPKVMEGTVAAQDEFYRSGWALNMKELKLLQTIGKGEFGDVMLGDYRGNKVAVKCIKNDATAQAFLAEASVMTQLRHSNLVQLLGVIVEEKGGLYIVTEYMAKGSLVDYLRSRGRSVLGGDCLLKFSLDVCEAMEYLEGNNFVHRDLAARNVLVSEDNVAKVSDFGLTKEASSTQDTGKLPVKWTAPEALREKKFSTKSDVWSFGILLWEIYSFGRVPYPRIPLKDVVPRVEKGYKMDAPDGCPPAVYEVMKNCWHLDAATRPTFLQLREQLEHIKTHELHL

binding | Substance
binds | CSK (from UniProt P41241 1-450) (enzyme)
binds | p-CSK (from UniProt P41241 1-450) (enzyme)

Source: PMC7971865
